Source: PubChem BioAssay AID2685 (National Center for Advancing Translational Sciences (NCATS), 2010)
Where “and” joins values, the source holds several entries; their conditions need not be identical. Equal values may be shown once. About 2,100 (0.66%) of roughly 320,000 compounds were called active. Inconclusive results, whose numbers are uncertain, are shown with a selection of clear calls. Calls follow the shape of the dose curve; as a rule, active = well fitted inhibition curve with a large enough effect in the signal ratio, with a control signal flat (not every such curve was filed as active); inconclusive = small, poorly fitted or top-dose-only effect, or effect the other way, or a change in a side signal; inactive = flat fitted curve, though single readings scatter; the % refers to the signal ratio. Potencies beside an inconclusive call are fits to weak or partial responses and may not hold up.

Assay: qHTS Assay for Lipid Storage Modulators in Drosophila S3 Cells
Details: BODIPY lipid droplet fluorescence, 18-24 h, cells fed with added oleic acid; lipid storage change, negative = inhibition: at 46.1 µM (top of the series) unless noted
Summary of the method: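 Drosophila S3 cells got compounds at several concentrations plus oleic acid (400 uM solution). Laser-scanning cytometry with 488 nm excitation read lipid droplets at 500-530 nm and cells at 575-640 nm. Percent activity was relative to 20 uM Triacsin C.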
% is scaled to controls: 0 for no effect and ±100 for the full control effect; potency is read from the fitted curve at half-maximal effect.

Row | Structure (SMILES) | lipid storage change, negative = inhibition | Potency
1 | CCOP(=O)(OCC)C(O)c1ccc2c(c1)OCO2 (stereo not given) | inconclusive: 30.9% | –
2 | CCOC(=O)CSc1ccc(C(=O)N2CCC3(CC2)OCCO3)cc1[N+](=O)[O-] | inconclusive: 8.65% | –
3 | O=C(c1ccc(Br)cc1)C12CN3CN(CN(C3)C1)C2 | inactive | –
4 | O=[N+]([O-])c1ccc(N2CCCC(C(F)(F)F)C2)c2ccncc12 (stereo not given) | – | inconclusive: 16.4 µM [falling, single point]
5 | CCOc1ccccc1-n1c(O)c(C=Nc2ccc(N(CC)CC)cc2)c(=O)[nH]c1=O | inconclusive: 48.3% | –
6 | Cc1ccc(Oc2cc(NN3CCCCC3)c([N+](=O)[O-])cc2[N+](=O)[O-])c([N+](=O)[O-])c1 | – | inconclusive: 29.1 µM [activator, single point]
7 | Cc1cc(/C=C2/C(=O)NC(=O)N(Cc3ccco3)C2=O)c(C)n1-c1ccc(C(=O)O)cc1 | inconclusive: -21.2% | –
8 | CCCCCn1c(=O)c(C(=O)NCc2ccc(Cl)cc2)c(O)c2ccccc21 | – | inconclusive: 20.6 µM [falling, single point]
9 | Cc1ccc(CN2CCCN(Cc3ccc(Cl)cc3)S2(=O)=O)cc1 | inconclusive: 32.7% | –
10 | CCOP(=O)(OCC)C(NC(=O)NS(=O)(=O)c1ccc(C)cc1)c1ccccc1 (stereo not given) | – | inconclusive: 0.206 µM [activator, partial curve]
11 | O=c1[nH]c2c(c(=O)n1C1CCCCC1)CCC2 | inconclusive: -47.9% | –
12 | CCn1c(=O)cc(OCC(=O)N2CCN(Cc3ccc4c(c3)OCO4)CC2)c2ccccc21 | – | inconclusive: 7.31 µM [activator, partial curve, poor fit]
13 | CC(Oc1ccc(-c2ccccc2)cc1)C(=O)O (stereo not given) | – | inconclusive: 14.6 µM [rising, partial curve, poor fit]
14 | O=C(c1ccc2c(c1)N(Cc1ccccc1)CCS2)N1CCC2(CC1)OCCO2 | – | inconclusive: 18.4 µM [falling, single point]
15 | CCOc1ccccc1CNCCc1ccc2c(c1)OCO2 | – | inconclusive: 18.4 µM [activator, single point]
16 | N[C@@H]1C[C@H]1c1ccccc1 | inconclusive: 14.3% | –
17 | CCC(Oc1cc(Cl)ccc1Cl)C(=O)N1CCC2(CC1)OCCO2 (stereo not given) | – | inconclusive: 29.1 µM [falling, single point]
18 | CNc1cc(Cl)c2nonc2c1[N+](=O)[O-] | inconclusive: -94.8% | –
19 | O=P1(Oc2ccccc2)CC=C[C@H](COCc2ccccc2)O1 (stereo not given in full) | inconclusive: 13.3% | –
20 | O=c1c2ccccc2nc(-c2ccco2)n1-c1nccs1 | – | inconclusive: 7.31 µM [activator, partial curve]
21 | N#Cc1ccccc1Cn1cc(C(=O)c2ccco2)c2ccccc21 | inconclusive: 50.9% | –
22 | N=C(N)c1c(O)n(C2CCCCC2)c(=O)n(C2CCCCC2)c1=O | inconclusive: -92.1% | –
23 | O=C(Cc1ccccc1)OCC(=O)c1ccccc1 | inconclusive: 3.84% | –
24 | CC/C(=N\NC(=S)Nc1ccccc1)c1c(O)[nH]c(=O)[nH]c1=O | – | inconclusive: 25.9 µM [activator, partial curve, poor fit]
25 | CC(C)(C)NC(=O)Cn1c(=O)oc2cc(S(=O)(=O)N3CCc4ccccc43)ccc21 | – | inconclusive: 1.64 µM [activator, partial curve]

Row | Structure (SMILES) | lipid storage change, negative = inhibition | Potency
26 | CN(C)N=O | inconclusive: -55.9% | –
27 | Cn1c(=O)c2c(nc(N/N=C/c3c(O)n(-c4ccccc4)c(=S)[nH]c3=O)n2C)n(C)c1=O | inactive | –
28 | COCCN(C(=O)COC(=O)Cc1ccccc1)c1c(N)n(Cc2ccccc2)c(=O)[nH]c1=O | inconclusive: 0.788% | –
29 | CC(C)CC1C(C#N)=C(N)Oc2c1c(=O)oc1ccccc21 (stereo not given) | – | inconclusive: 2.59 µM [activator, single point]
30 | COc1ccc(C(=O)CN2CCCCC2)cc1 | – | inconclusive: 0.92 µM [falling, full curve, poor fit]
31 | CSc1ncc(/C=C2/C(=O)NC(=O)N(C)C2=O)cn1 | inconclusive: -13% | –
32 | CCOc1cc(/C=C2\C(=O)NC(=O)N(CCc3ccc(F)cc3)C2=O)ccc1O | inconclusive: -5.82% | –
33 | Cc1ccccc1C1=NCC(=O)N(CC(=O)NCc2ccco2)c2sc3c(c21)CCCC3 | – | inconclusive: 11.6 µM [falling, single point]
34 | Cn1c(O)c(C=NC2CCCCCC2)c(=O)[nH]c1=S | – | inconclusive: 4.11 µM [falling, single point]
35 | CC(C)(C)P(=O)(c1ccncc1)N1CCCC1 (stereo not given) | – | inconclusive: 0.103 µM [falling, full curve, poor fit]
36 | COc1ccc(-n2c(/C=C/c3ccc(O)cc3)nc3ccccc3c2=O)cc1 | – | inconclusive: 14.6 µM [falling, single point]
37 | C=CC(=O)NCNC(=O)C=C | inconclusive: 56.5% | –
38 | COC(=O)C1=C(c2ccc(OC(F)(F)F)cc2)C[C@@H]2CC[C@H]1N2C(=O)NC1CCCCC1 | – | inconclusive: 0.0046 µM [activator, full curve, poor fit]
39 | CN1C(=O)C(C2(C#N)CCCCC2)C(=O)N(C)C1=O | inconclusive: -16% | –
40 | Cc1cccc(-n2c(O)c(/C=C3/C(c4ccccc4)=Nc4ccccc43)c(=O)[nH]c2=O)c1 | inconclusive: 32.4% | –
41 | COC(=O)C1=C(c2c(C)noc2C)C[C@@H]2CC[C@H]1N2C(=O)NCCO | inconclusive: 1.71% | –
42 | Cc1ccc(/C=C2/C(=O)NC(=O)N(Cc3ccc(F)cc3)C2=O)o1 | inconclusive: -16.6% | –
43 | Cc1ccc(N)c(N)c1 | inconclusive: 10.9% | –
44 | CC(=NCCc1c[nH]c2ccccc12)c1c(O)n(Cc2ccccc2)c(=O)[nH]c1=O | inconclusive: 23.2% | –
45 | Cn1c(O)c(C=NCCN2CCNCC2)c(=O)[nH]c1=O | inconclusive: 14% | –
46 | CN1CCN(Cc2nc3ccccc3c(=O)[nH]2)CC1 | – | active: 29.1 µM
47 | COC(=O)C1=C(c2c(C)noc2C)C[C@@H]2CC[C@H]1N2C(=O)N1CCC(O)(c2ccc(Cl)cc2)CC1 | inconclusive: 7.74% | –
48 | C=CCn1c(C)c(C=C2C(=O)NC(=O)NC2=O)c2ccccc21 | inactive | –
49 | COc1cc2c(cc1OC)-c1c3c(cc4c1[C@@H](C2)N(C)CC4)OCO3 | – | inconclusive: 16.4 µM [falling, partial curve, poor fit]
50 | CC(Cc1ccccc1)NC(=O)Cc1ccc([N+](=O)[O-])cc1 (stereo not given) | inconclusive: 31.2% | –

As entered above:
Potency with COc1ccc(-n2c(/C=C/c3ccc(O)cc3)nc3ccccc3c2=O)cc1 is entered as inconclusive: 14.6 µM [falling, single point]
lipid storage change, negative = inhibition with CN1C(=O)C(C2(C#N)CCCCC2)C(=O)N(C)C1=O is entered as inconclusive: -16%
Potency with COC(=O)C1=C(c2ccc(OC(F)(F)F)cc2)C[C@@H]2CC[C@H]1N2C(=O)NC1CCCCC1 is entered as inconclusive: 0.0046 µM [activator, full curve, poor fit]

Later entries:

Row | Structure (SMILES) | lipid storage change, negative = inhibition | Potency
51 | O=C1/C(=C/c2cccc([N+](=O)[O-])c2)N2CCC1CC2 | – | inconclusive: 25.9 µM [falling, single point]
52 | Cc1cc(OCC(=O)N2CCC(C(=O)O)CC2)c2c3c(c(=O)oc2c1)CCC3 | inconclusive: 26.3% | –
53 | CC1=NCCc2c1[nH]c1ccccc21 | – | inconclusive: 25.9 µM [falling, single point]
54 | c1ccc(Cn2ccnc2)cc1 | inconclusive: 2.29% | –
55 | CCC(=O)N1CC(=O)Nc2ccc(Br)cc2C1c1ccccc1 (stereo not given) | inconclusive: 11.7% | –
56 | CCC(C)(C)NC(=O)Cn1c(=O)oc2cc(S(=O)(=O)N3CC(C)CC(C)C3)ccc21 (stereo not given) | – | inconclusive: 7.31 µM [falling, partial curve, poor fit]
57 | COc1cc(C(=O)N2C[C@H]3C[C@@H](C2)c2cccc(=O)n2C3)cc(OC)c1OC | inconclusive: 30.4% | –
58 | Cc1ccc(-c2nn(Cc3ccccc3)cc2C=O)cc1C | inconclusive: 20.1% | –
59 | CCn1c(NN=O)nc2ccccc21 | inconclusive: -46.1% | –
60 | Cn1c(O)c(C(=Nc2ccc(F)cc2)c2ccccc2Cl)c(=O)n(C)c1=O | inconclusive: 7.4% | –
61 | O=C(/C=C/c1ccc(F)cc1)NC(=S)N1C[C@H]2C[C@H](C1)c1cccc(=O)n1C2 | inconclusive: -45.2% | –
62 | ClC1C(Cl)C(Cl)C(Cl)C(Cl)C1Cl (stereo not given) | inconclusive: -13.4% | –
63 | O=c1cccc2n1C[C@@H]1C[C@@H]2CN(CC(O)c2ccc([N+](=O)[O-])cc2)C1 (stereo not given in full) | inconclusive: 17.7% | –
64 | CC1CCCC(C2(O)C(=O)Nc3ccccc32)C1=O (stereo not given) | – | inconclusive: 25.9 µM [falling, partial curve, poor fit]
65 | CC1=C(C(=O)O)N2C(=O)C(NC(=O)Cc3ccccc3)C2SC1 (stereo not given) | – | inconclusive: 7.31 µM [falling, single point]
66 | CC(O)(CS(=O)(=O)c1ccccc1)C(=O)Nc1cccc(C(F)(F)F)c1 (stereo not given) | inconclusive: 11.1% | –
67 | C=CCN1CC[C@]23c4c5ccc(O)c4O[C@H]2C(=O)CC[C@@]3(O)[C@H]1C5 | inconclusive: -22.1% | –
68 | Oc1cc2c(cc1CN1CCN(c3ccc(F)cc3)CC1)OCO2 | inconclusive: 69.3% | –
69 | c1ccc(CCNCc2cccnc2)cc1 | – | inconclusive: 29.1 µM [activator, single point]
70 | CCOP(=S)(OCC)Oc1cc(C)oc(=O)c1 | inconclusive: 2.33% | –
71 | Cc1ccsc1/C=C1\C(=O)NC(=S)N(C)C1=O | – | inconclusive: 29.1 µM [falling, single point]
72 | Cc1ccc(C)c(N2CCN(C(=O)CCNS(=O)(=O)c3ccc4c(c3)oc(=O)n4C)CC2)c1 | – | inconclusive: 3.66 µM [activator, partial curve]
73 | CCc1ccc(CNCCc2c[nH]c3ccccc23)cc1 | inconclusive: 65% | –
74 | C[C@]12CC[C@H](O)C[C@@H]1CC[C@@H]1[C@@H]2CC[C@]2(C)[C@@H](C(=O)O)C[C@@H]12 | inconclusive: 36.4% | –
75 | CC12CC3CC(C)(C1)CC(N)(C3)C2 | inconclusive: -7.45% and inconclusive: 0.684% | –
